# The entries are a selection whose mix differs from that of the whole data set. At the low end of the ranking, values are background and their order means little.
# Protein sequences, listed by entry. Tags and fused reporters are not part of them. Lines headed by an entry give the natural chain unless they say otherwise; changes in a name come on top.
# UniProt P41212: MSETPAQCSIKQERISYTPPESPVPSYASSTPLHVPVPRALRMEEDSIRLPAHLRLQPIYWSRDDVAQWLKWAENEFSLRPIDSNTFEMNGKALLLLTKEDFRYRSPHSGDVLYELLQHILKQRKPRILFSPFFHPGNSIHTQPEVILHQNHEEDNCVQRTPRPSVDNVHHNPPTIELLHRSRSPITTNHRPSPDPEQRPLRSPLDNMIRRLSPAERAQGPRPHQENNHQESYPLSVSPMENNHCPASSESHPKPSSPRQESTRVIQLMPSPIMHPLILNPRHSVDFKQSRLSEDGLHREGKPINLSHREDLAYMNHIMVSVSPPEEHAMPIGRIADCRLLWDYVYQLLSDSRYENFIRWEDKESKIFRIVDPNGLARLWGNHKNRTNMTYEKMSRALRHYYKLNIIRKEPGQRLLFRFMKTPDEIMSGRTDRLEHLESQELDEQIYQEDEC
# Molecular target: ETV6 (UniProt P41212)
# Assay: DAPPL (digital affinity profiling via proximity ligation, sequencing)
# Conditions: 10 mM Tris-HCl pH 7.5, 50 mM NaCl, 1 mM DTT, 4% glycerol, room temperature, 30 min; GST-TFs on glutathione beads, 16-mer random dsDNA library, 0.1% …; high values mean tight binding; double strand, one strand shown; scale: fold enrichment (6-mer frequency, TF over GST control)
row,Sequence,binding signal
1,ACGTCA,0.995
2,CTGGAA,1.34
3,GGCAAT,0.99
4,CGCCTA,1.14
5,GCCGAA,0.983
6,AGTCCC,0.983
7,GATACC,0.875
8,ACGCTA,1.08
9,TGACTG,1.06
10,CCGTTA,0.957
11,CGGATT,0.917
12,GAAAGG,0.965
13,TCCCGA,1.22
14,GACCCC,0.878
15,TCGTTG,0.889
16,CCAACT,1.18
17,TCGCGG,1
18,TTGAAG,0.999
19,CCCATA,1.31
20,AAAGTA,1.15

row,Sequence,binding signal
1,CTGCAG,1.11
2,CTCCAG,0.978
3,GATTCG,0.97
4,TAGGTC,0.997
5,GTTGCT,1.29
6,ACCGCC,1.26
7,ATGGTG,1.11
8,CATATC,1.26
9,ACCGGT,0.932
10,GTATCG,0.917
11,AACCGA,0.955
12,AATTCT,1.25
13,ACTTGA,0.919
14,CAAGTT,1.09
15,TATTGA,1.16
16,TGCAAG,0.99
17,GTGTAA,0.909
18,CATCAA,0.969
19,AGAGCT,0.927
20,GGTTAA,0.886

# Laid out differently: entries from further up.
row | Sequence | binding signal
7 | ATGGTG | 1.11
12 | AATTCT | 1.25

# Source: PMC7862700
